The list shows a part of the results. The main result of the screen is listed elsewhere. These columns were measured beside it and carry no call. The list favours compounds with an active or inconclusive main result. Words in brackets tell the shape of the fitted curve; partial curves, single points and poor fits give uncertain potencies.
Test: qHTS Assay for Lipid Storage Modulators in Drosophila S3 Cells;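 as to cell number change: cells counted by Cell Tracker Red CMTPX staining in the red channel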
Conditions: BODIPY lipid droplet fluorescence, 18-24 h; for cell number change: measured here: cell count max response, cells fed with added oleic acid
How it was run: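 Drosophila S3 cells loaded with oleic acid (400 uM, as added) and compounds at several concentrations; lipid droplets imaged by 488-nm laser-scanning cytometry, 500–530 nm intensity and object ratio to cell channel. Percent activity normalized to 20 uM Triacsin C.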

[1] = measured here: cell number channel AC50, cells fed with added oleic acid
[2] = measured here: lipid fluorescence (Fed channel) AC50, cells fed with added oleic acid

COc1ccc(CN(CC(O)COc2cccc3[nH]cc(C)c23)C(C)(C)C)cc1 (stereo not drawn)
cell number change: -27.8%
AC50 [1]: 0.116 µM [falling, full curve, poor fit]

CCNC(=O)NC(=O)C(C)OC(=O)CCS(=O)(=O)c1ccc(C)cc1 (stereo not drawn)
cell number change: -24.6%
AC50 [1]: 3.26 µM [falling, full curve, poor fit]
AC50 [2]: 3.66 µM [falling, full curve]

COCCNC(=O)c1onc(CSc2ccccc2)c1C(=O)NCCOC
cell number change: -19%

COC(=O)c1ccc(N=C2S/C(=C\c3cc(C)n(-c4cccnc4)c3C)C(=O)N2C)cc1
cell number change: -17.1%
AC50 [2]: 29.1 µM [falling, single point]

O=C(CCC1CCCCC1)NCc1ccncc1
AC50 [2]: 6.51 µM [falling, single point]

CCN(CC(=O)NCc1ccc(F)cc1)C(=O)c1cc2ccccc2o1
cell number change: 5.24%
AC50 [2]: 29.1 µM [rising, partial curve, poor fit]

COC(=O)CCC(=O)c1ccc(OC)c(Cl)c1
cell number change: 20.5%
AC50 [1]: 0.651 µM [falling, full curve, poor fit]
AC50 [2]: 0.731 µM [falling, partial curve, poor fit]

COCC(=O)Nc1c(C(=O)Nc2ccc3c(c2)OCCO3)oc2ccccc12
cell number change: -12.8%
AC50 [1]: 0.517 µM [rising, single point]

Cc1nc(NCCc2ccccc2)sc1C(=O)N(C)C
cell number change: -7.94%
AC50 [2]: 29.1 µM [rising, single point]

O=C(CSc1ncnc2c1cnn2-c1ccc(F)cc1)NCc1ccc2c(c1)OCO2
cell number change: -9.16%
AC50 [2]: 1.46 µM [falling, partial curve]

CN(Cc1ccc(F)cc1)Cc1nc(CCc2ccccc2)no1
cell number change: 1.46%

COc1ccc(CC(=O)n2[nH]c(=O)c3ccccc3c2=O)cc1OC
cell number change: -38.7%
AC50 [1]: 4.61 µM [falling, full curve]
AC50 [2]: 6.51 µM [falling, single point]

Cc1cc(C(=O)O)c2ccccc2n1
cell number change: -0.299%
AC50 [2]: 6.51 µM [falling, single point]

O=c1cc(O)nc(-c2ccc(Cl)cc2)s1
cell number change: -40.6%
AC50 [1]: 6.51 µM [falling, single point]

CC(OC(=O)c1cc(=O)[nH]c2ccccc12)c1ccccc1 (stereo not drawn)
cell number change: -33.2%

CCN(CC)C(=O)C1CCN(S(=O)(=O)c2c(C)noc2/C=C/c2cccc(C)c2)CC1
cell number change: 11%
AC50 [2]: 0.731 µM [falling, single point]

CCOC(=O)c1sc2nc(NC(=O)COc3ccccc3)sc2c1C
cell number change: 11.9%

COc1cccc(O)c1CN1CCC(C(=O)Nc2ccc(-c3cccc(C)c3)cc2)CC1
cell number change: -68.8%
AC50 [1]: 8.2 µM [falling, partial curve]
AC50 [2]: 29.1 µM [falling, single point]

O=C(NCc1ccco1)C1CCN(S(=O)(=O)N2CCC3(CC2)OCCO3)CC1
AC50 [1]: 6.51 µM [falling, single point]

CCOc1ccccc1NC(=O)C(OC(=O)c1ccc(O)cc1)c1ccccc1 (stereo not drawn)
cell number change: -24.6%

Cc1ccc(S(=O)(=O)NCC(=O)NC2CC2)cc1
cell number change: -0.745%

CCCSC(=S)NC1CCS(=O)(=O)C1 (stereo not drawn)
cell number change: -19.2%
AC50 [2]: 0.206 µM [falling, full curve]

CCOc1ccc(NC(=O)NNC(=O)C2CCC(C(C)(C)C)CC2)cc1 (stereo not drawn)
cell number change: 2.75%
AC50 [2]: 0.651 µM [rising, full curve, poor fit]

Cc1nnc(-c2ccccc2)nc1N(C)C
cell number change: 19.5%
AC50 [2]: 6.51 µM [falling, single point]

Cc1nn(-c2ccccc2)c(Cl)c1C(=O)OCC(=O)NCCc1ccccc1
cell number change: 23.8%
AC50 [2]: 0.58 µM [rising, single point]

CCOc1ccc(-c2ccc(SCC(=O)NC3CCCCC3)nn2)cc1
cell number change: 14.4%
AC50 [2]: 18.4 µM [rising, single point]

CCOc1cc(C=O)cc(N=Nc2cccc([N+](=O)[O-])c2)c1O
cell number change: -53%
AC50 [1]: 23.1 µM [falling, single point]

NC(=S)N/N=C/c1ccc2ccccc2c1
cell number change: -29.5%
AC50 [1]: 5.8 µM [rising, single point]
AC50 [2]: 6.51 µM [rising, single point]

Oc1ccc(/C=N/NC(=S)N/N=C/c2ccc(O)cc2)cc1
cell number change: 52.9%
AC50 [1]: 16.4 µM [rising, single point]
AC50 [2]: 29.1 µM [rising, single point]

Nn1c(SCC(=O)N2CCN(S(=O)(=O)c3ccc(Cl)cc3)CC2)nnc1-c1cccs1
AC50 [2]: 4.11 µM [rising, partial curve]

Cc1ccc(-n2nnnc2SCC(=O)N2CC(=O)Nc3ccccc32)cc1
cell number change: 33.9%
AC50 [1]: 0.651 µM [rising, full curve, poor fit]

COc1ccc(C2c3sc(=O)[nH]c3SC3C4CCC(C4)C23)cc1OC (stereo not drawn)
cell number change: -32.1%
AC50 [1]: 25.9 µM [falling, single point]
AC50 [2]: 29.1 µM [falling, single point]

COc1cc(C(=O)NNC(=O)c2ccc(F)cc2)ccc1OCC(=O)N1CCOCC1
cell number change: 0.648%
AC50 [2]: 16.4 µM [rising, partial curve, poor fit]

Cc1cc(NS(=O)(=O)c2ccc(NC(=O)c3cnc(Cl)c(Cl)c3)cc2)nc(C)n1
cell number change: 13.3%
AC50 [2]: 0.411 µM [rising, partial curve, poor fit]

Cc1cc(NC(=O)C2CC2)n(-c2nc3ccccc3s2)n1
cell number change: 4.76%

O=C1COc2ccc(S(=O)(=O)CCC(=O)N3CCN(c4ccccc4)CC3)cc2N1
cell number change: 6.26%
AC50 [2]: 5.17 µM [rising, single point]

Cc1ccc(/C=N/NC(=O)CSc2nc3ccccc3n2Cc2ccc(Cl)cc2)o1
cell number change: 49%
AC50 [1]: 4.61 µM [rising, partial curve]
AC50 [2]: 29.1 µM [rising, single point]

COC(=O)c1cc(Br)ccc1N(Cc1cc(OC)cc(OC)c1)S(C)(=O)=O
cell number change: -3.43%
AC50 [1]: 1.16 µM [falling, single point]
AC50 [2]: 18.4 µM [falling, partial curve, poor fit]

Cc1ccc(/C(=C\CN2CCCC2)c2ccccn2)cc1
cell number change: -2.43%
AC50 [2]: 0.731 µM [rising, partial curve, poor fit]

C[C@H](NC(=O)c1ccccc1F)C(=O)N1CCC2(CC1)NCCc1[nH]cnc12
AC50 [2]: 0.116 µM [rising, single point]

COc1cc(/C=C/C(=O)NC(C)C2CC3CCC2C3)cc(OC)c1OC (stereo not drawn)
AC50 [2]: 4.11 µM [falling, full curve]

Cn1c(=O)c2cc(S(=O)(=O)NC(Cc3ccccc3)C(=O)NCc3ccco3)ccc2n(C)c1=O (stereo not drawn)
cell number change: -13%

COCCCNc1nc2c(-c3cccc(C)c3)nnn2c2ccc(Cl)cc12
cell number change: -68%
AC50 [1]: 7.31 µM [falling, partial curve]
AC50 [2]: 7.31 µM [falling, partial curve]

O=C(c1cc(-c2cccc(O)c2)on1)N1CCCC1
cell number change: 7.08%
AC50 [2]: 1.16 µM [rising, single point]

Cc1cccc(CC(=O)Nc2sc(C(C)C)cc2C(=O)N2CCOCC2)c1
cell number change: 84.8%
AC50 [1]: 6.51 µM [rising, partial curve, poor fit]
AC50 [2]: 29.1 µM [rising, partial curve]

O=C(CC(c1ccco1)S(=O)(=O)c1ccccc1)c1ccccc1 (stereo not drawn)
cell number change: -13.1%
AC50 [1]: 4.61 µM [falling, single point]
AC50 [2]: 3.66 µM [falling, single point]

COc1cc(C)ccc1OCCOc1ccccc1Cl
AC50 [2]: 20.6 µM [rising, single point]

O=C(CCc1nnc2n(Cc3ccc(F)cc3)c(=O)c3ccccc3n12)NCCN1CCOCC1
cell number change: 10.4%
AC50 [2]: 6.51 µM [falling, single point]

COc1ccc(C(=O)N2CCN(c3ccc(C)cc3C)CC2)cc1OC
cell number change: 3.58%
AC50 [2]: 4.61 µM [rising, partial curve]

CC(=O)N(CCc1ccccc1C)Cc1cc2cc3c(cc2[nH]c1=O)OCO3
cell number change: 103%
AC50 [1]: 2.06 µM [rising, full curve]
AC50 [2]: 2.31 µM [rising, full curve]

Cc1ccc(C(=O)Nc2sc(C)c(C)c2C(=O)c2ccccc2)cc1
cell number change: 11.2%
AC50 [2]: 2.91 µM [rising, full curve]

Cc1cc(C)cc(NS(=O)(=O)c2ccc3[nH]cc(C(=O)N4CCc5ccccc54)c(=O)c3c2)c1
cell number change: 3.22%
AC50 [2]: 32.6 µM [rising, single point]

Fc1cccc(CO/N=C/c2c(-c3ccccc3)nc3ccc(Cl)cn23)c1
cell number change: -42.7%

O=C(NCc1ccco1)C1(c2ccccc2)CCCC1
cell number change: 0.129%
AC50 [2]: 2.06 µM [falling, partial curve]

COc1cc(C(=O)NC(=S)Nc2ccccc2[N+](=O)[O-])cc(OC)c1OC
cell number change: 15%

O=C(CC(SCCO)c1ccc(F)cc1)c1ccco1 (stereo not drawn)
cell number change: 0.149%

CCCCn1c(-c2csc(CC)c2)n[nH]c1=S
cell number change: -9.69%
AC50 [2]: 0.116 µM [rising, partial curve]

COc1ccc(CCC(C)Nc2ccccc2F)cc1 (stereo not drawn)
cell number change: 32.4%
AC50 [1]: 6.51 µM [rising, single point]
AC50 [2]: 23.1 µM [rising, single point]

CCc1nc(OCCN(C)C)c2oc3ccccc3c2n1
cell number change: -31.4%
AC50 [1]: 32.6 µM [falling, single point]

COC(=O)C1CCN(C(=O)c2cc(OC)c(OC)c(OC)c2)CC1
cell number change: 4.9%
AC50 [2]: 23.1 µM [rising, single point]

O=C(CC1SC(N2CCCCC2)=NC1=O)Nc1cccc(C(=O)O)c1 (stereo not drawn)
cell number change: -29.8%
